Source: paper doi:10.1101/2020.06.04.133710

The chains behind the UniProt entries cited, without tags or fusion partners.
UniProt O60566: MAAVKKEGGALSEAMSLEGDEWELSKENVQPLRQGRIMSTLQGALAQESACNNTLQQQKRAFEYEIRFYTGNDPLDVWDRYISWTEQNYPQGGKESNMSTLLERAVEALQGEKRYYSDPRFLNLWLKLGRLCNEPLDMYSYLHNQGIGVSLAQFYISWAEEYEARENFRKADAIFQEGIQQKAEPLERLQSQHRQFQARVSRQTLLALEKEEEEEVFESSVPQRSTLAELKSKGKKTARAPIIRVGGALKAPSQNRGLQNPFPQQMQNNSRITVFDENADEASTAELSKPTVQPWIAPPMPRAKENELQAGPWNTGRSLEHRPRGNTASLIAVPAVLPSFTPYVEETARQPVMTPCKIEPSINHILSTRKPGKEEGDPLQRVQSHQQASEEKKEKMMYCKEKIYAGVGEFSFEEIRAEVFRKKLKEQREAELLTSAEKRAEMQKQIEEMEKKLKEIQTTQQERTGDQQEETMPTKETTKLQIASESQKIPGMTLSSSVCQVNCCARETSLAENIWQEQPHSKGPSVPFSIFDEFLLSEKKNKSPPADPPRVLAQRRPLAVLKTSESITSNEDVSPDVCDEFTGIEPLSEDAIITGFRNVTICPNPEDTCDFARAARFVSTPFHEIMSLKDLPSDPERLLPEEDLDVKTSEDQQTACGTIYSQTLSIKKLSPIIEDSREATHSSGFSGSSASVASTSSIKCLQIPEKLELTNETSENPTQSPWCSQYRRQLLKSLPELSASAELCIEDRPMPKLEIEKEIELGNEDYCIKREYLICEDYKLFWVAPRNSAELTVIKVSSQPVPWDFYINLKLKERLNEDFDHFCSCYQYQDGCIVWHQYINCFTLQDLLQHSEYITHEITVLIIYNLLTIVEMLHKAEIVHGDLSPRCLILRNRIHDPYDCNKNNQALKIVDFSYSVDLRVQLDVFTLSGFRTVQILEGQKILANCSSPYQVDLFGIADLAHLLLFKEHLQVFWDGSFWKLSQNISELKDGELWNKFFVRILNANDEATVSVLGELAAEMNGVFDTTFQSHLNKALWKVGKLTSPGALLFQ
UniProt Q13257: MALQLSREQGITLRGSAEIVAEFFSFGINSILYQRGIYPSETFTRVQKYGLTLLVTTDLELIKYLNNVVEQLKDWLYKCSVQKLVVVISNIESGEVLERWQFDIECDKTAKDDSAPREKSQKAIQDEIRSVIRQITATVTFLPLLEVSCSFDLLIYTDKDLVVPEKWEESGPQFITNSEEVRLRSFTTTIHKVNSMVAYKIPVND
UniProt O43683: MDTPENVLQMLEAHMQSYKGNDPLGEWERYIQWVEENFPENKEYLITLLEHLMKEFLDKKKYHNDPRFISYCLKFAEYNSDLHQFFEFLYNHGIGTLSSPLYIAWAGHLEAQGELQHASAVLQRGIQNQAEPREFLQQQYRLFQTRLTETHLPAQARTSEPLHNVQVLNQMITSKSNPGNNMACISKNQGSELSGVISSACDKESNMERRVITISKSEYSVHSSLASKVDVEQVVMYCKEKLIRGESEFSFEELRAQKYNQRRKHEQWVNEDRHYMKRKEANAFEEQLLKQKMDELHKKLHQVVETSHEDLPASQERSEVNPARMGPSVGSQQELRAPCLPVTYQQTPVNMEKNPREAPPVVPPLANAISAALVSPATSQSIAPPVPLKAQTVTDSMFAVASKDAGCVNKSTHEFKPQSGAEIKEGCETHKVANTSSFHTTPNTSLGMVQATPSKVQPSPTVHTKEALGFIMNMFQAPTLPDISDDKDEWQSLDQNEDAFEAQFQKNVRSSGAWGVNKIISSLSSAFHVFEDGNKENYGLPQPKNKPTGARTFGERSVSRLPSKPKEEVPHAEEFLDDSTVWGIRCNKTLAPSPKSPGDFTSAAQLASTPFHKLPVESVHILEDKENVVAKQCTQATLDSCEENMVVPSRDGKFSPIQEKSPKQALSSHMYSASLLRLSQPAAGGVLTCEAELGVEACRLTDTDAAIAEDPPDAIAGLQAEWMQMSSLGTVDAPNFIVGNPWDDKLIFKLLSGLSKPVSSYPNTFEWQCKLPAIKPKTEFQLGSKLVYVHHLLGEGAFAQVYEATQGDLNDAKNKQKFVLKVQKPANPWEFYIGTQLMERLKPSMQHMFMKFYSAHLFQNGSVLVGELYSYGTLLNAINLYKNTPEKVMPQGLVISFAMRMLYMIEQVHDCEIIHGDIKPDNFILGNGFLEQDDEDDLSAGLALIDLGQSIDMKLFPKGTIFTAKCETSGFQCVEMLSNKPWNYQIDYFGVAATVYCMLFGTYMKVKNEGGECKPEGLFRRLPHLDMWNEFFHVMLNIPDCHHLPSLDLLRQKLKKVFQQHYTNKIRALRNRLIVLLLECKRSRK
UniProt O43684: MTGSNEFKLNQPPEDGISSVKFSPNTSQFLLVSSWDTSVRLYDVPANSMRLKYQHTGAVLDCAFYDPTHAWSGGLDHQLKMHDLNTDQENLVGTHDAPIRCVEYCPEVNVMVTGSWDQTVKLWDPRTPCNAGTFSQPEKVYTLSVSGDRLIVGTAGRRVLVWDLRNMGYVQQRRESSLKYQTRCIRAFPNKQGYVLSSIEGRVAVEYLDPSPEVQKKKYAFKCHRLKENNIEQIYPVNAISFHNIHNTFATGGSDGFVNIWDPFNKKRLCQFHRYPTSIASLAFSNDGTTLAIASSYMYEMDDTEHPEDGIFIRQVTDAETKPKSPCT
UniProt P63167: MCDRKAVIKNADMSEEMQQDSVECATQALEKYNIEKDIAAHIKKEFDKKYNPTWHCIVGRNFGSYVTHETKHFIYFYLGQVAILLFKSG
UniProt P49790: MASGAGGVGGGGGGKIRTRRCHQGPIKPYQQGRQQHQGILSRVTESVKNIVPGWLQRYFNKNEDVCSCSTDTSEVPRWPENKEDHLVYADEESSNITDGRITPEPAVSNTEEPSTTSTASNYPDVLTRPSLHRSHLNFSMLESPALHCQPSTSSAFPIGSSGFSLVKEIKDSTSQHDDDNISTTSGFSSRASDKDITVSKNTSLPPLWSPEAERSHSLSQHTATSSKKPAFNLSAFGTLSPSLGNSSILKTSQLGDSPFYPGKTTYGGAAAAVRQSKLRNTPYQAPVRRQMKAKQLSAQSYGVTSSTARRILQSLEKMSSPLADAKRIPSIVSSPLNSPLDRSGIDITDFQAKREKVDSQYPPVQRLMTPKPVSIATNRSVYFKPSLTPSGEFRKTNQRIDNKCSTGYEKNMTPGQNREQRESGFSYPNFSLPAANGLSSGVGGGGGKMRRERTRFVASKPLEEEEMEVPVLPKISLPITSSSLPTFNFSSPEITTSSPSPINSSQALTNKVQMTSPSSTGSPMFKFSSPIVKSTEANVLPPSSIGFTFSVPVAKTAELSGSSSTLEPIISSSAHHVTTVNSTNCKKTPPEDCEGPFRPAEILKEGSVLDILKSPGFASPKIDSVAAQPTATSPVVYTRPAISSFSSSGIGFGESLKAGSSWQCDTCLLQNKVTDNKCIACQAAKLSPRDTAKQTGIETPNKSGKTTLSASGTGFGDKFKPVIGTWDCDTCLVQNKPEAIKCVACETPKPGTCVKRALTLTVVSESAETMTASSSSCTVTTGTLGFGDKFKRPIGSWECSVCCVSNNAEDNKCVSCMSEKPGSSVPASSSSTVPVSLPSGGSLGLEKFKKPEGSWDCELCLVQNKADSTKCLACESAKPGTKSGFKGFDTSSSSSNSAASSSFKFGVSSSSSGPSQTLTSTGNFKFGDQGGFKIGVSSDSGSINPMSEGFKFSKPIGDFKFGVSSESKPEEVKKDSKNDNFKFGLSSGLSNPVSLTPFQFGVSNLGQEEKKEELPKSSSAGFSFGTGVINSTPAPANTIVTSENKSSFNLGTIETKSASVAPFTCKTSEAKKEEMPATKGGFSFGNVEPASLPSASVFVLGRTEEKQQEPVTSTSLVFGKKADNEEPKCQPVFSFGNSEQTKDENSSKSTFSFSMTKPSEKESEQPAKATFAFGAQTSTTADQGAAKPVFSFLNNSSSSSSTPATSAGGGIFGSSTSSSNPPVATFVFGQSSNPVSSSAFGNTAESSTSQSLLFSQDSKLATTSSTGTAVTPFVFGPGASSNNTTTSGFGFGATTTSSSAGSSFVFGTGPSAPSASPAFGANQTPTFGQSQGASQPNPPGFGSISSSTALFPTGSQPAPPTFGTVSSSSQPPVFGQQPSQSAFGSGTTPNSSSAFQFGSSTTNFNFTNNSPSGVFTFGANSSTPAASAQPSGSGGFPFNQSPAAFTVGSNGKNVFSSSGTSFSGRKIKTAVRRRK
UniProt P12270: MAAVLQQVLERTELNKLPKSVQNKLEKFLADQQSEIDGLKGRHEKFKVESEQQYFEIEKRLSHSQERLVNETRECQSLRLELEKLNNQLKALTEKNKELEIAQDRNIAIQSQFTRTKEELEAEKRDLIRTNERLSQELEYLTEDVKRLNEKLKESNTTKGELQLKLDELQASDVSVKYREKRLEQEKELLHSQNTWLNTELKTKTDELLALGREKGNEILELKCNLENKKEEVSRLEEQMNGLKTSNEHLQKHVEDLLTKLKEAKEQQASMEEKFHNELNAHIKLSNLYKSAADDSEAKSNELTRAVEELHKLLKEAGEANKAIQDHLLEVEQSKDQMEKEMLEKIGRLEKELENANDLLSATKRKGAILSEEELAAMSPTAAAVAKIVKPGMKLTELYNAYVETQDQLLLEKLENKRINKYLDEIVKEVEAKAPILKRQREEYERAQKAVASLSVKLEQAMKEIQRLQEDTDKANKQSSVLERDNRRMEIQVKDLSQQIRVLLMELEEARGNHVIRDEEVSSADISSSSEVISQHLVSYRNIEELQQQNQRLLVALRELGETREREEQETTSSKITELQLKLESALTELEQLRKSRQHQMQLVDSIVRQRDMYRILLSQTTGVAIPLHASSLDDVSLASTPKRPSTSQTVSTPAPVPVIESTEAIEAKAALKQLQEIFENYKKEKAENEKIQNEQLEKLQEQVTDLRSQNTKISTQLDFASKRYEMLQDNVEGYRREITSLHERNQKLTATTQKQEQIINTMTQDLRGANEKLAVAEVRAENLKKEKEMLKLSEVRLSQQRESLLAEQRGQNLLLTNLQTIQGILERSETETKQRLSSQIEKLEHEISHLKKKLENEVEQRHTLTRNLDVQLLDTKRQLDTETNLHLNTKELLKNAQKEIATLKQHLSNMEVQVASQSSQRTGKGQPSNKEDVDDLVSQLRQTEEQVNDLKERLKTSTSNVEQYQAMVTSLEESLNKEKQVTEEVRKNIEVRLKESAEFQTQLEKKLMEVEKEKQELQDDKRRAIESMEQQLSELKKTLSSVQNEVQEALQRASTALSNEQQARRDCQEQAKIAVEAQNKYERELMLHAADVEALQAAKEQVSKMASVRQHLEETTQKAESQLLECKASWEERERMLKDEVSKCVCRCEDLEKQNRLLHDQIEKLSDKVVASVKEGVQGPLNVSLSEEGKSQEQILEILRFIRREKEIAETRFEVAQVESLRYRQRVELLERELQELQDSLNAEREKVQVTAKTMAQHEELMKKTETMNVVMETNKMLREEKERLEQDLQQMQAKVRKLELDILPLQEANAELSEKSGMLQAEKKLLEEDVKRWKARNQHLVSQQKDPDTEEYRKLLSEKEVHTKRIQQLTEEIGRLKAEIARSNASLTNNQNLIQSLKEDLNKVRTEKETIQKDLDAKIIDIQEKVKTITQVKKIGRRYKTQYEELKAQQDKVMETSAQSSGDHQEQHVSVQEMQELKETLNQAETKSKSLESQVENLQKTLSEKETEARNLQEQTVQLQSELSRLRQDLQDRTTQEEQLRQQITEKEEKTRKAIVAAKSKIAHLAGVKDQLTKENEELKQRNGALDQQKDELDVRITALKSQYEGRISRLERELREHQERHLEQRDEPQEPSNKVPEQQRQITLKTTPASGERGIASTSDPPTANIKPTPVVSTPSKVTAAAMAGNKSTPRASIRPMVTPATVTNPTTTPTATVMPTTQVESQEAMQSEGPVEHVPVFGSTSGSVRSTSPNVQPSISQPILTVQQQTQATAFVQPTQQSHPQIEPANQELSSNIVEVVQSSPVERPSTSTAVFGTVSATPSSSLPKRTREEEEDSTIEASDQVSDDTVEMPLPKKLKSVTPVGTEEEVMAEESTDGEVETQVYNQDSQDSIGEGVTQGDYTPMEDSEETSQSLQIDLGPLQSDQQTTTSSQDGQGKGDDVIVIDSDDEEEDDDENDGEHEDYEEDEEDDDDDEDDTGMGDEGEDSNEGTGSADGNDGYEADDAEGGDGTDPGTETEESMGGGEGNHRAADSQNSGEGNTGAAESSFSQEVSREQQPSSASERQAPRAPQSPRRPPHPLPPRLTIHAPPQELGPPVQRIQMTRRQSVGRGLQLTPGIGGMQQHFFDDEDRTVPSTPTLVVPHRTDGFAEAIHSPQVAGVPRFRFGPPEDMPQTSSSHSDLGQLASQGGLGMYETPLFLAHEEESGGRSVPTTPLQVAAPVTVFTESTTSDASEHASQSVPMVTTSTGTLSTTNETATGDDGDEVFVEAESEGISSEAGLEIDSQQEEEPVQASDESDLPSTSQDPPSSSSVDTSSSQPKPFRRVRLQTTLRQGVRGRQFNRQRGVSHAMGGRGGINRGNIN

T1: MAD1L1 (human) (UniProt Q9Y6D9)
T1 sequence: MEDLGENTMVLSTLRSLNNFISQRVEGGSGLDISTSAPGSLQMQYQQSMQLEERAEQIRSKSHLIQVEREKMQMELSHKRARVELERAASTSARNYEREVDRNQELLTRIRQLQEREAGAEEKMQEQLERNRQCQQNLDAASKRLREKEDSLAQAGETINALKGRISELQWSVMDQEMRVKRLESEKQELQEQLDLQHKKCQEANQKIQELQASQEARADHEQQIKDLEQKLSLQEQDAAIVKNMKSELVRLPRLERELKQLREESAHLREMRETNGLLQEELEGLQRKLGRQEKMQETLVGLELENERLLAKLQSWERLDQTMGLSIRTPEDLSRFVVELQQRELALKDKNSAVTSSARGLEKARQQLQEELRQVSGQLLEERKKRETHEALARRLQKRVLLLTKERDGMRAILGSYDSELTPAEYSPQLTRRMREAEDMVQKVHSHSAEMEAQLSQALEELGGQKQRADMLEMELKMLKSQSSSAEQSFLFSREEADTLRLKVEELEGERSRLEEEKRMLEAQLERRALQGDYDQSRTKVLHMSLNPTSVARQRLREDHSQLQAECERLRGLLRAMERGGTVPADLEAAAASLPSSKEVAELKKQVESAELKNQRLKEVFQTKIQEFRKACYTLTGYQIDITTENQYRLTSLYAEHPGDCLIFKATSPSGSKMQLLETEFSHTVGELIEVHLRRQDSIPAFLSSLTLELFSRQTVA


Key:
Experiment in all cases: proximity labelling
BUBR1 (human) = BUBR1 (human) (UniProt O60566)
MAD2L1 (human) = MAD2L1 (human) (UniProt Q13257)
MAD1L1 (human) [1] = target: T1, MAD1L1 (human)
BUB1 (human) [2] = target: BUB1 (human) (UniProt O43683)
BUB3 (human) = BUB3 (human) (UniProt O43684)
MAD1L1 (human) [3] = target: T1, MAD1L1 (human); remark: listed apart in the source
BUB1 (human) [4] = target: BUB1 (human) (UniProt O43683); remark: listed apart in the source

Molecule | binding (BUBR1 (human)) | binding (MAD2L1 (human)) | binding (MAD1L1 (human) [1]) | binding (BUB1 (human) [2]) | binding (BUB3 (human)) | binding (MAD1L1 (human) [3]) | binding (BUB1 (human) [4])
DYNLL1 (from UniProt P63167 1-89) | binds | binds | binds | binds | binds |  | 
KNL1 (from UniProt Q8NG31 1-2342) | binds | no binding | binds |  | binds |  | 
NUP210 (from UniProt Q8TEM1 27-1887) |  | binds |  |  |  |  | 
PLK1 (from UniProt P53350 1-603) | binds | binds | binds |  | binds |  | 
DSN1 (protein, UniProt Q9H410 1-356) MTSVTRSEIIDEKGPVMSKTHDHQLESSLSPVEVFAKTSASLEMNQGVSEERIHLGSSPKKGGNCDLSHQERLQSKSLHLSPQEQSASYQDRRQSWRRASMKETNRRKSLHPIHQGITELSRSISVDLAESKRLGCLLLSSFQFSIQKLEPFLRDTKGFSLESFRAKASSLSEELKHFADGLETDGTLQKCFEDSNGKASDFSLEASVAEMKEYITKFSLERQTWDQLLLHYQQEAKEILSRGSTEAKITEVKVEPMTYLGSSQNEVLNTKPDYQKILQNQSKVFDCMELVMDELQGSVKQLQAFMDESTQCFQKVSVQLGKRSMQQLDPSPARKLLKLQLQNPPAIHGSGSGSCQ |  |  |  |  |  | binds | binds

Next, values leading:

binding (BUBR1 (human)) | binding (MAD2L1 (human)) | binding (MAD1L1 (human) [1]) | binding (BUB1 (human) [2]) | binding (BUB3 (human)) | binding (MAD1L1 (human) [3]) | binding (BUB1 (human) [4]) | Molecule
binds |  |  |  |  |  |  | BUB3 (from UniProt O43684 1-328)
 | binds |  |  |  |  |  | CENPV (from UniProt Q7Z7K6 1-275)
binds | binds | binds | binds | binds |  |  | ELYS/AHCTF1 (from UniProt Q8WYP5 1-2266)
no binding | binds | binds | no binding | no binding |  |  | NUP153 (from UniProt P49790 1-1475)
no binding |  |  | no binding | no binding |  |  | TPR (from UniProt P12270 1-2363)
 |  |  |  |  | binds | binds | PMF1 (protein, UniProt Q6P1K2 1-205) MAEASSANLGSGCEEKRHEGSSSESVPPGTTISRVKLLDTMVDTFLQKLVAAGSYQRFTDCYKCFYQLQPAMTQQIYDKFIAQLQTSIREEISDIKEEGNLEAVLNALDKIVEEGKVRKEPAWRPSGIPEKDLHSVMAPYFLQQRDTLRRHVQKQEAENQQLADAVLAGRRQVEELQLQVQAQQQAWQALHREQRELVAVLREPE

Like-named read-outs stand apart in the source and are kept apart here. Results are given in words; binding and its absence hold for the method and conditions named. In cells and extracts the contact can be indirect. These calls come from enrichment with a bait or labelling near it, and not all partners need be listed. For part of these data: A no says only that the protein was not detected with the bait.
